Tested on: P. aeruginosa INV(muxA-mexZ) mutant (efflux-compromised background)
Format: cell-based
Conditions: data not shown

Question: With `O=C(O)c1cn(C2CC2)c2cc(N3CCNCC3)c(F)cc2c1=O` [ciprofloxacin, reference compound] as the molecule, how does the “effect of muxA-mexZ inversion on potency” value read?
Answer: Its value is “reduced the potency”.
